# Laboratory results as given in PubChem BioAssay AID1347075 (National Center for Advancing Translational Sciences (NCATS), 2019).
# The campaign covered roughly 400,000 compounds. About 5,500 (1.4%) were called active. Inconclusive results, whose numbers are uncertain, are shown with a selection of clear calls. Calls come from the whole dose curve; as a rule, active = well fitted cell-killing curve with a large enough effect; inconclusive = small, poorly fitted or top-dose-only effect, or effect the other way; inactive = flat fitted curve, though single readings scatter. Potencies beside an inconclusive call are fits to weak or partial responses and may not hold up.
# Assay: qHTS assay for MDR1-selective chemotherapeutics: Primary screen using the parental adenocarcinoma cell KB-3-1; note: nearly all actives have a fitted effect of over 60% in size
# Conditions: KB-3-1 viability, CellTiter-Glo ATP luminescence, 72 h; activity change, negative = cytotoxic: at 46.1 µM (top of the series)
# Method in brief: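 Parental KB-3-1 viability, qHTS format: 72 h compound exposure, 37 °C; CellTiter-Glo; media-only wells and DMSO plates as controls; concentration-effect fits on corrected data.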
# % is set by controls: 0 for no effect and ±100 for the full control effect; potency is the fitted concentration of half-maximal effect.
Compound,"activity change, negative = cytotoxic",Potency
O=C(NCc1ccc2c(c1)OCO2)c1cc(-c2ccncc2)nc2ccccc12,inactive: 4.82%,–
CC(C)c1ccccc1NC(=O)Nc1nnc([C@H]2C[C@H](O)[C@@H](CO)O2)s1,–,active: 0.0012 µM
C(=C1c2ccccc2Oc2ccccc21)c1ccccc1,inconclusive: 46.8%,–
CC1CC(C)C[N+](=C2C=C(N3CCCC3)CC(C)(C)C2)C1 (stereo unspecified),–,active: 5.8 µM
Cc1cccc(C)c1-n1nnnc1-c1nc2cc3ccccc3cc2[nH]c1=O,–,active: 1.03 µM
Cc1cccc(C(=O)Nc2cc(-c3nc4cccnc4s3)ccc2C)c1,–,"inconclusive: 0.0073 µM [rising, full curve]"
COc1ccc(OC)c(-c2nnc3n2N=C(c2ccc(OC(F)F)c(OCC4CC4)c2)CS3)c1,–,active: 5.8 µM
CC(=O)Nc1ccc(SC[C@H](C)CN2CC[C@H](C(C)(C)C)CCC2=O)cc1,–,inactive
COc1ccc(NS(=O)(=O)c2cccc(NC(=O)c3ccc(Cl)nc3)c2)cc1,–,"inconclusive: 29.1 µM [cytotoxic, single point]"
CC(C)Oc1ccccc1C1C=C(C(=O)O)Nc2ncnn21 (stereo unspecified),inconclusive: -5.96%,–
COc1ccc2nc(Nc3nc(CSc4nc5ccccc5[nH]4)cc(=O)[nH]3)nc(C)c2c1,–,"inconclusive: 29.1 µM [cytotoxic, single point]"
CCCc1nnc(NC(=O)c2c(O)c3cccc4c3n(c2=O)CC4)s1,–,"inconclusive: 20.6 µM [cytotoxic, single point]"
CC(=O)c1cccc(NC(=S)NC(=O)c2cncc(Br)c2)c1,–,"inconclusive: 23.1 µM [cytotoxic, single point]"
O=C(COc1ccccc1)N1CCN(c2nnc(-c3ccccc3)c3ccccc23)CC1,–,"inconclusive: 29.1 µM [cytotoxic, single point]"
O=C(CSc1nnc(CNc2ccc(F)cc2)o1)N1c2ccccc2Sc2ccccc21,–,"inconclusive: 29.1 µM [cytotoxic, single point]"
Cc1cccc(CN2C(=O)N(c3ccc(C(C)C)cc3)S(=O)(=O)c3ccccc32)c1,–,"inconclusive: 29.1 µM [cytotoxic, single point]"
S=c1[nH]nc(-c2ccncc2)n1Cc1ccccc1,inactive: 7.49%,–
COc1cc2c(c(OC)c1OC)-c1ccc(N(C)CC(OC)OC)c(=O)cc1[C@@H](NC(C)=O)CC2,–,active: 0.517 µM
O=C(COc1ccccc1F)Nc1ccc2oc(-c3cccc(Cl)c3)nc2c1,inactive: 1.78%,–
O=C(NCc1nc2ccccc2[nH]1)C1=C[C@H](c2ccccc2)C[C@H](OCc2ccc(CO)cc2)O1,–,"inconclusive: 29.1 µM [cytotoxic, single point]"
COc1ccc(NC(=O)/C(N=Nc2cc(S(=O)(=O)Nc3ccc(OC)cc3)ccc2OC)=C(\C)O)cc1,–,"inconclusive: 32.6 µM [cytotoxic, single point]"
O=C(CC(=O)NN=Cc1ccc2c(c1)CCC2)NN=Cc1ccc2c(c1)CCC2,inactive: 22.9%,–
NC(=O)c1ccc(NS(=O)(=O)c2ccc(S(=O)(=O)N3CCCC3)cc2)cc1,inactive: 3.88%,–
Cc1ccc(OCC(=O)Nc2cccc(-c3nc4ccccc4s3)c2)cc1,inactive: 0%,–

Compound,"activity change, negative = cytotoxic",Potency
O=C(Nc1cccc(S(=O)(=O)N2CCCCC2)c1)c1ccccc1NS(=O)(=O)c1ccc(F)cc1,–,"inconclusive: 20.6 µM [cytotoxic, single point]"
COc1cc(NC(=O)Nc2nnc([C@H]3C[C@H](O)[C@@H](CO)O3)s2)cc(OC)c1OC,inactive: 0%,–
COc1cccc(CNC(=O)C2CCN(S(=O)(=O)c3ccc4c(c3)CC(C)N4C(=O)C3CC3)CC2)c1 (stereo unspecified),–,"inconclusive: 23.1 µM [cytotoxic, single point]"
CCOC(=O)C1(N(CC)CC)Sc2cc(C)ccc2NC1=O (stereo unspecified),–,"inconclusive: 20.6 µM [cytotoxic, single point]"
COc1ccc(-c2nc(CS(=O)CC(=O)NCCCN3CCCC(C)C3)c(C)o2)cc1OC (stereo unspecified),inconclusive: 30.6%,–
CCN(c1cccc(C)c1)S(=O)(=O)c1ccc2c(c1)CCN2C(C)=O,–,"inconclusive: 20.6 µM [cytotoxic, single point]"
Cc1cc(C(=O)CSc2nnc(N)s2)c(C)n1Cc1cccs1,–,"inconclusive: 25.9 µM [cytotoxic, partial curve, poor fit]"
O=[N+]([O-])c1ccc(NN=Cc2cccc(O)c2)nc1,inactive: -0.578%,–
Cn1c(CNC(=O)CNC(=O)Cc2ccc(Cl)cc2)cc(=O)n(C)c1=O,–,"inconclusive: 16.4 µM [rising, partial curve, poor fit]"
Cc1cc(C)nc(SCC(=O)Nc2ncc(C(F)(F)F)cc2Cl)n1,–,"inconclusive: 29.1 µM [rising, single point]"
O=C1C=CC(=O)c2c(O)c(N3CCN(CCOCCO)CC3)c(Br)c(O)c21,–,active: 5.17 µM
O=C(NC1(O)C(=O)c2ccccc2C1=O)c1c(Cl)cccc1Cl,inactive: -1.06%,–
Cc1cccc(C(=O)NNC(=O)C23CC4CC(CC(C4)C2)C3)c1O,–,"inconclusive: 7.31 µM [cytotoxic, partial curve, poor fit]"
Cc1ccc(-c2n[nH]c3c2C(c2ccc(C(C)(C)C)cc2)NC3=O)cc1 (stereo unspecified),inactive: 0%,–
Cc1cc(C)c(NC(=O)COC(=O)c2cccc3c2C(=O)c2ccccc2C3=O)c(C)c1,–,"inconclusive: 25.9 µM [cytotoxic, single point]"
OC(c1ccccc1)(c1ccccc1)C1CCN(CCCOc2ccccc2Cl)CC1,–,"inconclusive: 29.1 µM [cytotoxic, single point]"
COc1ccc(NC(=S)N2CCC(NC(=O)C3CCCCC3)CC2)cc1,–,"inconclusive: 0.0052 µM [rising, full curve, poor fit]"
CN(C)/C=C1/N=C(c2ccccc2)OC1=O,inactive: 10.7%,–
CCN(Cc1ccccc1)C(=O)C1CCN(C(=O)Nc2ccccc2)CC1,–,"inconclusive: 0.0052 µM [rising, full curve]"
O=c1cc(CCl)nc2sc3ccccc3n12,–,"inconclusive: 32.6 µM [cytotoxic, single point]"
COc1ccc(Oc2c(Cl)cnn(-c3ccc(F)cc3)c2=O)cc1,–,"inconclusive: 29.1 µM [cytotoxic, single point]"
CCc1nc2ccc(C(=O)Nc3cc(-c4ccccc4)ccc3OC)cn2c1N(C)Cc1nccs1,–,"inconclusive: 29.1 µM [cytotoxic, single point]"
COc1ccccc1Nc1nc(-c2sc(N)nc2C)cs1,inactive: 3.7%,–
COc1cc(-c2cnc3c(NC=O)cc(-c4ccccc4Cl)cn23)cc(OC)c1OC,–,active: 1.03 µM

# Full records, quoted from the list:
# `S=c1[nH]nc(-c2ccncc2)n1Cc1ccccc1` is listed as activity change, negative = cytotoxic: inactive: 7.49%
# `O=C(CC(=O)NN=Cc1ccc2c(c1)CCC2)NN=Cc1ccc2c(c1)CCC2` is listed as activity change, negative = cytotoxic: inactive: 22.9%
# `COc1cccc(CNC(=O)C2CCN(S(=O)(=O)c3ccc4c(c3)CC(C)N4C(=O)C3CC3)CC2)c1` (stereo unspecified) is listed as Potency: inconclusive: 23.1 µM [cytotoxic, single point]
# `COc1ccc(OC)c(-c2nnc3n2N=C(c2ccc(OC(F)F)c(OCC4CC4)c2)CS3)c1` is listed as Potency: active: 5.8 µM

# Remaining list, next part.

Compound,"activity change, negative = cytotoxic",Potency
CCCN1CCN(c2cc3c(cc2F)c(=O)c(S(=O)(=O)c2ccc(CC)cc2)cn3CC)CC1,inactive: 2.14%,–
Cc1ccc(S(=O)(=O)N2CCN(C(=O)CCOc3cc(C)ccc3C)CC2)cc1,–,"inconclusive: 29.1 µM [cytotoxic, single point]"
Cc1ccc(Cn2ccsc2=NC(=O)COC(=O)c2ccc(NC(=O)CC#N)cc2)cc1,–,"inconclusive: 20.6 µM [cytotoxic, partial curve, poor fit]"
C/C(=C1/SC(N2CCCC2)=NC1=O)c1ccc(Br)cc1,–,"inconclusive: 18.4 µM [cytotoxic, partial curve, poor fit]"
COc1cc(OC)c2c(-c3cccc(-c4sccc4C(C)=O)c3)cc(=O)oc2c1,–,active: 2.91 µM
Cc1nn(CC(O)COc2ccc3c(c2)CCC3)c(C)c1C (stereo unspecified),inactive: 2.69%,–
CCN1C(=O)c2cccc3c(S(=O)(=O)Nc4ccccc4)ccc1c23,–,"inconclusive: 29.1 µM [cytotoxic, single point]"
CN(c1ccc(OCC(=O)Nc2nc3ccccc3s2)cc1)S(=O)(=O)c1ccccc1,inactive: -22.3%,–
CC(CCC(C)[n+]1cccc(C#N)c1)[n+]1cccc(C#N)c1 (stereo unspecified),–,"inconclusive: 8.2 µM [rising, partial curve, poor fit]"
O=C(Nc1cc(Cl)cc(Cl)c1)C(c1ccccc1)N1CCCCC1 (stereo unspecified),–,"inconclusive: 18.4 µM [cytotoxic, single point]"
CCc1nc2c(OCc3ccc(F)c(F)c3)cccn2c1N(C)C(=O)c1cccs1,inactive: 0%,–
Cc1cc(-n2c(C)cc(C(=O)CCl)c2C)no1,–,"inconclusive: 2.31 µM [cytotoxic, full curve, poor fit]"
CCOc1ccc(CN2C(=O)c3ccccc3C2=O)cc1C(=O)O,–,"inconclusive: 0.0073 µM [rising, full curve, poor fit]"
CC(C)(C)OC(=O)N[C@@H](CCCCNC(=O)OCc1ccccc1)c1nnc([C@H](CCCCNC(=O)OCc2ccccc2)NC(=O)OC(C)(C)C)o1,inactive: -24%,–
COc1ccccc1CNC(=O)C1CCCN(c2nnc(C)c3c(C)n(-c4ccccc4)nc23)C1 (stereo unspecified),inactive: 3.15%,–
Cc1cccc(/C=N/NC(=O)c2ccc(NC(=O)c3ccc(Cl)cc3)cc2)n1,–,"inconclusive: 29.1 µM [rising, single point]"
CCCCN(C=O)c1c(CC)nc2c(OCc3ccc(C(F)(F)F)cc3)cccn12,inactive: -0.0567%,–
CCc1ccc(Nc2n[n+](-c3ccccc3)c(-c3ccc(N(CC)CC)cc3)s2)cc1,inactive: -5.5%,–
COc1ccc(S(=O)(=O)N2CCSC2c2ccccc2)cc1 (stereo unspecified),–,"inconclusive: 18.4 µM [cytotoxic, single point]"
O=S(=O)(N1CCN(c2nc(-c3cccs3)nc3ccccc23)CC1)C(F)(F)F,inactive: 18.1%,–
CC(=O)COc1cc(C)cc2oc(=O)cc(-c3ccccc3)c12,inactive: -0.251%,–
CC(=O)N/C(=C/c1ccc2c(c1)OCO2)C(=O)NCC(=O)O,inactive: 4.01%,–
COc1ccc(/C=C2\N=C(SC)N(c3ccccc3OC)C2=O)cc1,–,"inconclusive: 18.4 µM [cytotoxic, partial curve, poor fit]"
